Experiment: Enhancement of water content in skin by the decoy molecule (summary)
Design: key: 0: on a scale using +symbols to reflect extent of the effect; −: on a scale using +symbols to reflect extent of the effect; +/−: on a scale using +symbols to reflect extent of the effect; on a scale using +symbols to reflect extent of the effect; ++: on a scale using +symbols to reflect extent of the effect; +++: on a scale using +symbols to reflect extent of the effect; ++++: on a scale using +symbols to reflect extent of the effect; +++++: on a scale using +symbols to reflect extent of the effect

hyaluronic acid [Hyaluronic Acid 10,000 Da]
Water Content Enhancement in Skin (listed as 10,000 Da): +

hyaluronic acid [Hyaluronic Acid 20,000 Da]
Water Content Enhancement in Skin (listed as 20,000 Da): +

hyaluronic acid [Hyaluronic Acid 100,000 Da degraded]
Water Content Enhancement in Skin (listed as 100,000 Da degraded): +

hyaluronic acid [Hyaluronic Acid 100,000 Da]
Water Content Enhancement in Skin (listed as 100,000 Da): +/−

hyaluronic acid [Hyaluronic Acid 3000 Da]
Water Content Enhancement in Skin (listed as 3000 Da): +++

hyaluronic acid [Hyaluronic Acid 5000 Da]
Water Content Enhancement in Skin (listed as 5000 Da): ++

hyaluronic acid [Hyaluronic Acid degraded 5000 Da]
Water Content Enhancement in Skin (listed as degraded 5000 Da): +++

hyaluronic acid [Hyaluronic Acid disaccharide (400 Da)]
Water Content Enhancement in Skin (listed as disaccharide (400 Da)): +++

Reference: patent publication US20190008795A1, “COMPOSITIONS FOR TOPICAL APPLICATION OF COMPOUNDS” (Illustris Pharmaceuticals, Inc., priority 2016, published 2019)
